# Source: US20040101915A1, “Diagnosis and treatment of chemoresistant tumors” (IRM LLC, a Delaware Limited Liability Company, priority 2002, published 2004)
# Some of these results come from one statement about several compounds together.
# Legend:
# [1] = test system: RL-7 cells; experiment: MTT cytotoxicity assay, RL-7 cells; format: cell-based, human; conditions: RL-7 in comparison to DOHH2 cells, 24 hours
# [2] = test system: K422 cells; experiment: MTT cytotoxicity assay, K422 cells; format: cell-based, human; conditions: K422 in comparison to DOHH2 cells, 24 hours
# Procedure: An MTT cytotoxicity assay was used to determine the number of viable cells following treatment with various apoptotic stimuli. Cells (100 μl of a 8×10^5 cells/ml suspension) were added to each well of a 96 well plate and incubated with etoposide or doxorubicin for 24-72 h. MTT dye solution was then added for 4 h, the blue crystal product was solubilized over night at 37° C. and absorbance was measured at 570 nm. Because the MTT assay also measures growth arrest, the MTT results were verified with caspase activity assays.
smiles,measurement,setting,value
COc1cccc2c1C(=O)c1c(O)c3c(c(O)c1C2=O)C[C@@](O)(C(=O)CO)C[C@@H]3O[C@H]1C[C@H](N)[C@H](O)[C@H](C)O1 [doxorubicin],higher drug concentration required to obtain a similar 50% reduction in viability,[1],more than 50 fold
same,higher drug concentration required to obtain a similar 50% reduction in viability,[2],more than 50 fold
COc1cc([C@@H]2c3cc4c(cc3[C@@H](O[C@@H]3O[C@@H]5CO[C@@H](C)O[C@H]5[C@H](O)[C@H]3O)[C@H]3COC(=O)[C@H]23)OCO4)cc(OC)c1O [etoposide],higher drug concentration required to obtain a similar 50% reduction in viability,[1],more than 50 fold
same,higher drug concentration required to obtain a similar 50% reduction in viability,[2],more than 50 fold
